According to patent US20220032023A1, “ULTRA-SHARP MICRONEEDLE” (THE TRUSTEES OF COLUMBIA UNIVERSITY IN THE CITY OF NEW YORK, priority 2019, published 2022):
Like-named read-outs stand apart in the source and are kept apart here.

System: guinea pig perilymph proteome
Conditions: for abundance ratio (IP Dex/control): IP 10 mg/kg

C[C@@H]1C[C@H]2[C@@H]3CCC4=CC(=O)C=C[C@]4(C)[C@@]3(F)[C@@H](O)C[C@]2(C)[C@@]1(O)C(=O)COP(=O)(O)O [Dex, Dexamethasone sodium phosphate] was tested, and the “abundance ratio (IP Dex/control)” value (Dickkopf WNT signaling pathway inhibitor 3 (DKK3, H0V7V7_CAVPO), perilymph 6 h) was 1.97, the “abundance ratio (IT Dex/control)” value (Insulin-like growth factor binding protein 2 (IGPBP2, H0W263_CAVPO), intratympanic 0.5 mg, perilymph 6 h) was 0.60 and the “abundance ratio (IP Dex/control)” value (SMB domain-containing protein (Vtn, H0V077_CAVPO), perilymph 6 h) was 1.57. The “abundance ratio (IP Dex/control)” value (SPARC like 1 (SPARCL1, H0UW89_CAVPO), perilymph 6 h) was 3.82, the “abundance ratio (IP Dex/control)” value (VGF nerve growth factor inducible (VGF, H0VZA9_CAVPO), perilymph 6 h after dosing) was 3.20 and the “abundance ratio (IT Dex/control)” value (VGF nerve growth factor inducible (VGF, H0VZA9_CAVPO), intratympanic 50 μL of 10 mg/mL (0.5 mg), perilymph 6 h) was 2.23. The “abundance ratio (IP Dex/control)” value (amyloid β precursor like protein 1 (APLP1, H0V8E0_CAVPO), perilymph 6 h) was 2.44, the “abundance ratio (IP Dex/control)” value (annexin (ANXA2, H0V7P8_CAVPO), perilymph 6 h) was 0.59 and the “abundance ratio (IP Dex/control)” value (complement C5 (C5, H0UY41_CAVPO), perilymph 6 h) was 3.56. The “abundance ratio (IP Dex/control)” value (elongation factor 1-α (H0W9I8_CAVPO), perilymph 6 h) was 0.38, the “abundance ratio (IP Dex/control)” value (enolase 3 (ENO3, H0VN20_CAVPO), perilymph 6 h) was 0.09 and the “abundance ratio (IP Dex/control)” value (fructose-bisphosphate aldolase (ALDOC, H0W3T8_CAVPO), perilymph 6 h) was 0.26. The “abundance ratio (IP Dex/control)” value (heat shock protein family A (Hsp80) member 5 (Hspa5, H0VLM3_CAVPO), perilymph 6 h) was 0.67, the “abundance ratio (IP Dex/control)” value (neural EGFL-like 2 (NELL2, H0UV55_CAVPO), perilymph 6 h) was 1.78 and the “abundance ratio (IP Dex/control)” value (neuronal cell adhesion molecule (NRCAM, H0V7Q6_CAVPO), perilymph 6 h) was 3.34. The “abundance ratio (IP Dex/control)” value (tyrosine 3-monooxygenase/tryptophan 5-monooxygenase activation protein γ (YWHAG, A0A286XP66_CAVPO), perilymph 6 h) was 0.42 and the “abundance ratio (IT Dex/control)” value (tyrosine 3-monooxygenase/tryptophan 5-monooxygenase activation protein γ (YWHAG, A0A286XP66_CAVPO), intratympanic 0.5 mg, perilymph 6 h) was 0.41.
